# Assay results from article PMC6065439.
# Chains of the proteins cited; added tags and fusions are not shown. Residues count along the entry.
# UniProt Q91ZX7, residues 20-4545: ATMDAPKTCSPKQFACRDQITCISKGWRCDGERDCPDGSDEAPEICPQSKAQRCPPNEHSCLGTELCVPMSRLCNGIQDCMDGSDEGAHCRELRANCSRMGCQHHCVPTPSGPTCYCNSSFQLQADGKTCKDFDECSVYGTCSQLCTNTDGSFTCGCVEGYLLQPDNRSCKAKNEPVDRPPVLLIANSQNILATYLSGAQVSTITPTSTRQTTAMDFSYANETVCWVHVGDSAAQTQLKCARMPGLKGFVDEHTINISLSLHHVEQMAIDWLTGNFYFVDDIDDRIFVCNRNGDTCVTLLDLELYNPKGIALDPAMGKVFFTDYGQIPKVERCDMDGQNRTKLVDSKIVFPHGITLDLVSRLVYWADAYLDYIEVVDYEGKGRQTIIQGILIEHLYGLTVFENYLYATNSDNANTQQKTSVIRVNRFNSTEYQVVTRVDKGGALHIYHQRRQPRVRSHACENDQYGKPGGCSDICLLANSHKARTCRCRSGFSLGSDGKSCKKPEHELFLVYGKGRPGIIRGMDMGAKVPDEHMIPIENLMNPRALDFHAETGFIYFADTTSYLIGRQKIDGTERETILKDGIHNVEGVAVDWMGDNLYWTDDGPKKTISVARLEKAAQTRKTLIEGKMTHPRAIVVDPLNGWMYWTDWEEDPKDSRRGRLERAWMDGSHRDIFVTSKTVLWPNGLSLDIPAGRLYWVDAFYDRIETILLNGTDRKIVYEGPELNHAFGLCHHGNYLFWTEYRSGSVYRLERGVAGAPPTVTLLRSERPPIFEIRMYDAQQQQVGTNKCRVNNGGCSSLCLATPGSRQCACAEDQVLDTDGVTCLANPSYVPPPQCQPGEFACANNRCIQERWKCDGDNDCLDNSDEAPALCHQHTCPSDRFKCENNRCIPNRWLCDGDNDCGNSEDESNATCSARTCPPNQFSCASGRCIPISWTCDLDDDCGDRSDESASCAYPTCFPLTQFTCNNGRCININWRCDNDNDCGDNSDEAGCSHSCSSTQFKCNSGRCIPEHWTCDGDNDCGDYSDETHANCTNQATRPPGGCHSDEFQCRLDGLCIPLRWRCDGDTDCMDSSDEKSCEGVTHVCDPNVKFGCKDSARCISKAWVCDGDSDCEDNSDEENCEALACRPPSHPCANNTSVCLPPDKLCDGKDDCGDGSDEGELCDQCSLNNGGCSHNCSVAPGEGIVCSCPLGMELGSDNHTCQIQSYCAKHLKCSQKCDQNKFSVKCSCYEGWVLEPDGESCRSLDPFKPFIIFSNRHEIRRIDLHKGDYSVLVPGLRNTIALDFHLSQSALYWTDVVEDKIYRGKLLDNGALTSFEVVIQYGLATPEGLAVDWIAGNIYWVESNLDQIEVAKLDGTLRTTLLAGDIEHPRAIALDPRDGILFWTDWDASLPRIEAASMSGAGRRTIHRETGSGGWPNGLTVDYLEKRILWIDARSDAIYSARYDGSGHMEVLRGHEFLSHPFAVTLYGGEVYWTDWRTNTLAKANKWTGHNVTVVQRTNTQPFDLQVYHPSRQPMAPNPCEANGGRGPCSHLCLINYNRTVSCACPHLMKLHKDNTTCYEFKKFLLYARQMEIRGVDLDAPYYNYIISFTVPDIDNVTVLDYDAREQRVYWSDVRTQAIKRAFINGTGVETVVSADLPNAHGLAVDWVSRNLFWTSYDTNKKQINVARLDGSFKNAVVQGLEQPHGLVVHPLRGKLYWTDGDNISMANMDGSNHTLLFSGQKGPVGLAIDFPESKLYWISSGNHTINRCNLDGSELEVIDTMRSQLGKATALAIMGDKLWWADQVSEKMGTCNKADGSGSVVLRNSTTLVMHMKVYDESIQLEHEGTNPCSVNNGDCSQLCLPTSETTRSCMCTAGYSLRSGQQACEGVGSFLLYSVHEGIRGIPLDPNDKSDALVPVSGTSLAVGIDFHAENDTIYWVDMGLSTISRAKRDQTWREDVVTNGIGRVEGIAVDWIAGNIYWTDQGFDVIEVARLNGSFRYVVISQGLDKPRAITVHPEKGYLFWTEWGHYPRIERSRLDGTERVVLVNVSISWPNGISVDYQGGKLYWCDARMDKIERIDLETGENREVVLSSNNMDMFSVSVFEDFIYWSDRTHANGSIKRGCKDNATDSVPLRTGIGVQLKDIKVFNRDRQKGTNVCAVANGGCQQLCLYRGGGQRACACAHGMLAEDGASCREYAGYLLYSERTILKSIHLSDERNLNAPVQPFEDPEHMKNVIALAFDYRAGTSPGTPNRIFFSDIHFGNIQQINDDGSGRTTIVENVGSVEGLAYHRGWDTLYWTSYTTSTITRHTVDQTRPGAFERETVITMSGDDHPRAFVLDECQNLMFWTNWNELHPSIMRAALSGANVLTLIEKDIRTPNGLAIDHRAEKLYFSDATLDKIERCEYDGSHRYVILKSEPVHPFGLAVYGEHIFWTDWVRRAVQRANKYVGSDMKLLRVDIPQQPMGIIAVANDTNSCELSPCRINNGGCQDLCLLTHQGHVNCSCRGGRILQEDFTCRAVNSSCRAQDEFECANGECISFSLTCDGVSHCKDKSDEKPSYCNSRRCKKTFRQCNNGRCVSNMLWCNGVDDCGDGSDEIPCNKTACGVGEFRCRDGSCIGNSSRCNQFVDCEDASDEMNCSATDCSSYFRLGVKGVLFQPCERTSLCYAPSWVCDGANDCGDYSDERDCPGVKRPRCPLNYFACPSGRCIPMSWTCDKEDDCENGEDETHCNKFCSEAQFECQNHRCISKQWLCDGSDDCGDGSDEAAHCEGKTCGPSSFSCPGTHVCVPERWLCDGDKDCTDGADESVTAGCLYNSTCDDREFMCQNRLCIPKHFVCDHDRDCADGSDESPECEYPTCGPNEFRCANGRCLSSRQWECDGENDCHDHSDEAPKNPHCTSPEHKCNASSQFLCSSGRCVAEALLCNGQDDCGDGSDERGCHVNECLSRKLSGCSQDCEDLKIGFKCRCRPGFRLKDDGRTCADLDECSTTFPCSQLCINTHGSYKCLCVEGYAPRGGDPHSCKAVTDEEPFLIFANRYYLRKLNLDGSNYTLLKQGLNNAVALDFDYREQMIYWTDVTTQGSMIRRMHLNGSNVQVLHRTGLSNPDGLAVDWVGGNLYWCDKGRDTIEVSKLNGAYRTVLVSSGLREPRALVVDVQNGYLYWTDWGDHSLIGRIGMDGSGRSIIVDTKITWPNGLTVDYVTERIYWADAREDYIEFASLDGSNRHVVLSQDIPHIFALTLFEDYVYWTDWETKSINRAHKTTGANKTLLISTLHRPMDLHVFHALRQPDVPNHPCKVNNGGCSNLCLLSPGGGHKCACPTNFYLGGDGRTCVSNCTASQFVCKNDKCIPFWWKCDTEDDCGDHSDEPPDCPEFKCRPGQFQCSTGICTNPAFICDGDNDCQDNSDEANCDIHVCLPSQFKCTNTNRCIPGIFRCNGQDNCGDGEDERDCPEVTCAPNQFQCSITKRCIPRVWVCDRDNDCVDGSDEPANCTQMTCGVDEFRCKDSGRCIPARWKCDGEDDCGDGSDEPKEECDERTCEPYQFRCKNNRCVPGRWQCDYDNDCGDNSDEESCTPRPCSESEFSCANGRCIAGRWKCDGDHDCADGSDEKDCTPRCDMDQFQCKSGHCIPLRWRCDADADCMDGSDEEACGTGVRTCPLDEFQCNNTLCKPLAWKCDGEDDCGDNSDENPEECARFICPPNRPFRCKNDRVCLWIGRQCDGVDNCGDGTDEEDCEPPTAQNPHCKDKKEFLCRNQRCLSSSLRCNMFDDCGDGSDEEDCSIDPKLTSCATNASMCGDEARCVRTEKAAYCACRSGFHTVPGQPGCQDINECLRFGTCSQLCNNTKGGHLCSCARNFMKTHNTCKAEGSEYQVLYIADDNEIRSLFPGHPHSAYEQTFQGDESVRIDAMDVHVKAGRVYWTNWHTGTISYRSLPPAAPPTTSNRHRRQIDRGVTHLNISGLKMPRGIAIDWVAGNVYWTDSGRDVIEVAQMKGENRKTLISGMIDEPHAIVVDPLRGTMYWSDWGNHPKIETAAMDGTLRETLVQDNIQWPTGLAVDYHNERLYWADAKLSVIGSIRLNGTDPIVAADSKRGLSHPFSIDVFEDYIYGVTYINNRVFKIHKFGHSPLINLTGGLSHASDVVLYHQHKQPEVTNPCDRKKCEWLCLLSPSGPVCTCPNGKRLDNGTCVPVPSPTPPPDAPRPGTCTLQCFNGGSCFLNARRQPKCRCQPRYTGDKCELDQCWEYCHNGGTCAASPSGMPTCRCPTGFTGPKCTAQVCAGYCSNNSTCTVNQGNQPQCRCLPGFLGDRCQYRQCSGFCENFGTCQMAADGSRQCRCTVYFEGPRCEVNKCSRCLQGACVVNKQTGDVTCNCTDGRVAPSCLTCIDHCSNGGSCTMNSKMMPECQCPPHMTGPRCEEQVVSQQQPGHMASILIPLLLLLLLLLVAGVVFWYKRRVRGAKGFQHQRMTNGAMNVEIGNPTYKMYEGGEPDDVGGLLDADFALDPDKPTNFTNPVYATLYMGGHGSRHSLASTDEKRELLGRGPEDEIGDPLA
# These are yes or no findings as the source states them, for the method shown. In cells and extracts the contact can be indirect. Some entries that bind do so weakly or less than the wild type.
# Legend:
# [1] = target: LRP1 (human, endogenous in Hs578T cells) (human (endogenous in Hs578T)) (UniProt Q07954); experiment: cross-linking + co-IP; adherent cells untreated or treated with 50 uM novobiocin for 16 h; cell surface proteins cross-linked with cell-impermeable DTSSP (3 mg/ml, 4 °C, 2 h); lysis in non-denaturing buffer (20 mM Tris-Cl pH 8, 137 mM NaCl, 1% NP40, 2 mM EDTA); IP with rabbit anti-LRP1 or isotype control on Protein A magnetic beads overnight at 4 °C; elution with beta-mercaptoethanol; blots for FN, LRP1 and Hsp90
# [2] = target: LRP1 (mouse, endogenous in MEF-1 cells) (mouse (endogenous in MEF-1)) (UniProt Q91ZX7); experiment: as above
binding [1],binding [2],Substance
binds,–,"Fibronectin (human, endogenous in Hs578T cells) (from UniProt P02751 32-2477)"
–,binds,"Fibronectin (mouse, endogenous in MEF-1 cells) (from UniProt P11276 33-2477)"
